Measured values published in patent publication US20240102052A1 (VNV NEWCO, published 2024).
These are yes or no findings as the source states them, for the method shown. Some entries that bind do so weakly or less than the wild type. Where a sequence is shown, tags or fusion partners need not be part of it.

Experiments:
[1] = target: T1, untagged PNMA2 (human) (UniProt Q9UL42); assay: Ni-NTA affinity purification of hybrid capsids, SDS-PAGE
T1 sequence: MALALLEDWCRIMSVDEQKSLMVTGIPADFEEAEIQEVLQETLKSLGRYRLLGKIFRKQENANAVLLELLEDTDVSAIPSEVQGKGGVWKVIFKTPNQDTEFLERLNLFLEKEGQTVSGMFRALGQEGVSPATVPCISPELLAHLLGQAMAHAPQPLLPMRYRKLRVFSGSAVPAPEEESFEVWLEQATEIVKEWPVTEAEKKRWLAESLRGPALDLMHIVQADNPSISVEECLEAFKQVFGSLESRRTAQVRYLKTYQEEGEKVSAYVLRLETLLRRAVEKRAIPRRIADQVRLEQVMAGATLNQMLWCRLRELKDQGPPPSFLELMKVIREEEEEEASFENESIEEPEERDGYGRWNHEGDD

[2] = target: T1, untagged PNMA2 (human); assay: co-reassembly into hybrid capsids, confirmed by TEM

Substance: PNMA2 with N-terminal 6xHis tag (from UniProt Q9UL42 2-364)
- binding [1]: binds
- binding [2]: binds
